Data: US20070128157A1
Results are given in words; binding and its absence hold for the method and conditions named. Some entries that bind do so weakly or less than the wild type.

The chains behind the UniProt entries cited, without tags or fusion partners.
UniProt P10415: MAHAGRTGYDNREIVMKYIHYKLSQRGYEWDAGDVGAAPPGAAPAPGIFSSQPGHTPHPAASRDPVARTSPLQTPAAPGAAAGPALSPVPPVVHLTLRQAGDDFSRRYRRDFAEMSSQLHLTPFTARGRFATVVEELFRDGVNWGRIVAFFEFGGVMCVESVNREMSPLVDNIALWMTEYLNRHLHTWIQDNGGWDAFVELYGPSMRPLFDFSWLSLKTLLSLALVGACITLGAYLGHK

Biological target: Bcl-2 (UniProt P10415)
Assay: in vitro binding / immunoprecipitation (FIG. 7)

binding: binds
B1: iASPP (protein)
chain: MWMKDPVARPLSPTRLQPALPPEAQSVPELEEVARVLAEIPRPLKRRGSMEQAPAVALPPTHKKQYQQIISRLFHRHGGPGPGGRSQSCPPSLRDLRPGQGPLLLPHQLPFHRPAPSQSSPPEQPQSMEMRSVLRKAGSPRKARRARLNPLVLLLDAALTGELEVVQQAVKEMNDPSQPNEEGITALHNAICGANYSIVDFLITAGANVNSPDSHGWTPLHCAASCNDTVICMALVQHGAAIFATTLSDGATAFEKCDPYREGYADCATYLADVEQSMGLMNSGAVYALWDYSAEFGDELSFREGESVTVLRRDGPEETDWWWAALHGQEGYVPRNYFGLFPRVKPQRSKV
